Values joined by “and” are separate entries in the source; they are usually repeats but may differ in a detail not shown here. Equal values may be shown once. Out of some 300,000 compounds screened, about 5,400 (1.8%) were called active. The shares of active, inactive and inconclusive entries below differ from those in the screen. Calls follow the shape of the full dose curve; tested in HEK293 cells. Potencies beside an inconclusive call are fits to weak or partial responses and may not hold up.
Assay: qHTS for inhibitors of binding or entry into cells for Marburg Virus
Conditions: Marburg virus pseudotyped entry inhibition, cell reporter; activity change, negative = inhibition: at 37.8 µM (top of the series) unless noted
% is scaled to controls: 0 for no effect and ±100 for the full control effect; potency is read from the fitted curve at half-maximal effect.

| Structure (SMILES) | Potency | activity change, negative = inhibition |
| --- | --- | --- |
| Nc1c(C(=O)NCCN2CCOCC2)c2nc3ccccc3nc2n1CCc1ccccc1F | inconclusive: 20.6 µM [inhibitor, single point] | – |
| CC(=O)c1c(C)[nH]c(C(=O)N2CCN(c3cc(Cl)ccc3C)CC2)c1C | active: 7.3 µM | – |
| O=C(CCCN1C(=O)/C(=C/c2cccs2)SC1=S)Nc1ccccc1O | inconclusive: 5.62 µM [inhibitor, partial curve] | – |
| COc1cc(NC(=O)NCC2CCN(Cc3ccccc3Cl)CC2)cc(OC)c1OC | inconclusive: 10 µM [inhibitor, partial curve, poor fit] | – |
| CN(C)c1ccc(/C=C/c2nc3ccccc3s2)cc1 | active: 2 µM | – |
| CSc1ccccc1NC(=O)Nc1ccc(Cl)cc1 | inconclusive: 0.461 µM [activator, single point] | – |
| CC(=O)CC(C)(C)n1c[n+](C)nn1 | inactive | – |
| O=C(NC1=NCCS1)c1sc2cc(F)ccc2c1Cl | inconclusive: 3.55 µM [activator, partial curve, poor fit] | – |
| C=CCN1C(=O)NC(=O)C(CCc2ccncc2)(CCc2ccncc2)C1=O | – | inactive: 5.94% [at 46.1 µM] |
| COc1ccc(NC(=O)Cc2ccc(Cl)cc2)cc1NC(=O)c1ccco1 | – | inactive: -0.0806% |
| O=C(COC(=O)/C=C/c1ccc(OC(F)F)cc1)NC1CCCCCCC1 | inconclusive: 3.55 µM [activator, partial curve, poor fit] | – |
| CCOc1cc(/C=N/NC(=O)CN2CCOCC2)ccc1OCc1ccccc1 | – | inactive: -16.4% |
| CNc1nc(OCC#N)nc(N2CCCCC2)n1 | – | inactive: -6.49% [at 46.1 µM] |
| Cc1ccc(S(=O)(=O)Nc2cc(=O)[nH]c(SCc3ccccc3Cl)n2)cc1 | inconclusive: 35.5 µM [inhibitor, single point] | – |
| Fc1cccc(F)c1-n1c(CN2CCCC2)csc1=S | inconclusive: 35.5 µM [inhibitor, partial curve, poor fit] | – |
| CC(C)(C)c1cc(CCC(=O)NCCc2ccccn2)cc(C(C)(C)C)c1O | – | inactive: -28.1% [at 46.1 µM] |
| COc1ccc(C(=O)Oc2ccc(C(C)=O)cc2)c(OC)c1 | – | inactive: 0% |
| CC(C)(C)n1nnnc1C(c1ccccn1)N(Cc1ccccc1)Cc1ccc(Cl)cc1 (stereo not drawn) | inconclusive: 35.5 µM [inhibitor, single point] | – |
| CCNC(=S)NN(c1ccccc1)c1ccccc1 | – | inactive: 18% |
| N#Cc1c(C#N)c(-c2ccccc2)n(-c2ccc(C(=O)O)cc2)c1N | inconclusive: 35.5 µM [activator, single point] | – |
| CCOc1ccc(S(=O)(=O)N2CCN=C2c2ccccc2)cc1 | inconclusive: 3.98 µM [inhibitor, full curve, poor fit] | – |
| COc1ccc(C(=O)N(Cc2cc(OC)c(OC)c(OC)c2)c2ccccn2)cc1 | inconclusive: 3.55 µM [inhibitor, single point] | – |
| CCC(C)(C)n1nnnc1C(c1cccs1)N1CC=C(c2ccc(F)cc2)CC1 (stereo not drawn) | active: 14.6 µM | – |
| CCN(CC)C(=O)C1CCCN(c2ncnc3c2cnn3-c2cccc(C)c2)C1 (stereo not drawn) | inconclusive: 7.08 µM [inhibitor, partial curve, poor fit] | – |
| CCC(C(=O)OCC(=O)C1(O)CCC2C3CCC4=CC(=O)CCC4(C)C3C(O)CC21C)C(C)C (stereo not drawn) | inconclusive: 35.5 µM [inhibitor, single point] | – |

Structures listed so far that contain a tert-butyl group, in the order listed:

| Structure (SMILES) | Potency | activity change, negative = inhibition |
| --- | --- | --- |
| CC(C)(C)c1cc(CCC(=O)NCCc2ccccn2)cc(C(C)(C)C)c1O | – | inactive: -28.1% [at 46.1 µM] |
| CC(C)(C)n1nnnc1C(c1ccccn1)N(Cc1ccccc1)Cc1ccc(Cl)cc1 (stereo not drawn) | inconclusive: 35.5 µM [inhibitor, single point] | – |

Going on with the list.

| Structure (SMILES) | Potency | activity change, negative = inhibition |
| --- | --- | --- |
| Brc1ccc(-c2csc(/N=C/N3CCOCC3)n2)cc1 | inconclusive: 0.631 µM [activator, single point] | – |
| COc1ccc2nc(NC(=O)CSc3nnc(-c4ccoc4C)n3C)sc2c1 | inactive | – |
| CCCCNC(=O)Cn1c(=O)n(C)c2ccccc21 | inconclusive: 1.3 µM [inhibitor, partial curve, poor fit] | – |
| Cc1ccc(N2CC(C(=O)NC3=NCCS3)CC2=O)cc1 (stereo not drawn) | inconclusive: 29.1 µM [activator, single point] | – |
| Cn1c(=O)c2[nH]c(NN=Cc3ccccc3)nc2n(C)c1=O | inconclusive: 7.94 µM [inhibitor, single point] | – |
| CN(c1ccc(OCC(=O)Nc2cc(Cl)ccc2C(=O)O)cc1)S(=O)(=O)c1ccc(F)cc1 | inconclusive: 8.91 µM [inhibitor, partial curve, poor fit] | – |
| O=C(CNC(=O)c1cccs1)OCC(=O)c1ccccc1 | inconclusive: 0.461 µM [activator, partial curve] | – |
| O=C(NCc1ccco1)/C(=C\c1cccs1)NC(=O)c1ccsc1 | inconclusive: 0.282 µM [activator, full curve, poor fit] | – |
| CCC(=O)Nc1cccc(C(=O)OCC(=O)c2ccccc2Cl)c1 | inconclusive: 20.6 µM [activator, partial curve] | – |
| O=S(=O)(c1ccc(Cl)s1)N1CCCc2cccc(O)c21 | – | inactive: 10.1% |
| O=C(CCS(=O)(=O)Cc1ccc(Cl)cc1)NCCc1ccccc1 | – | inactive: 6.9% [at 46.1 µM] |
| CC(C)OC(=O)Cn1cc(C#N)c2ccccc21 | – | inactive: 10.9% [at 46.1 µM] |
| O=C(c1ccccc1)C(CCc1ccccn1)CCc1ccccn1 | inconclusive: 17.8 µM [inhibitor, single point] | – |
| N#CCSc1nc2c(sc(=S)n2Cc2ccco2)c(=O)n1-c1ccc(F)cc1 | inconclusive: 23.1 µM [inhibitor, partial curve, poor fit] | – |
| COCCNC(=O)C12CC3CC(CC(Cl)(C3)C1)C2 | – | inactive: 4.24% |
| O=C1c2ccccc2C(=O)N1CC(O)COc1ccc(Br)cc1 (stereo not drawn) | – | inactive: 20.2% [at 46.1 µM] |
| CC(C)C(NS(=O)(=O)c1ccccc1)C(=O)N1CCCCCC1 (stereo not drawn) | – | inactive: 5.22% |
| COc1ccc(N(CC(=O)N/N=C/c2ccc(-c3ccc([N+](=O)[O-])cc3)o2)S(=O)(=O)c2ccc(C)cc2)cc1 | inconclusive: 8.91 µM [inhibitor, partial curve, poor fit] | – |
| CCOC(=O)N1CCC(NC(=O)CSCc2nc(-c3ccc(OC)c(OC)c3)oc2C)CC1 | inactive and inconclusive: 29.1 µM [inhibitor, single point] | – |
| COC(=O)c1c(C)[nH]c(C=Nc2ccc(OC)cc2)c1C | inconclusive: 35.5 µM [inhibitor, single point] | – |
| O=C(O)CCc1nc(-c2ccccc2)c(-c2ccccc2)o1 | inactive and inconclusive: 5.62 µM [inhibitor, single point] | – |
| O=C(CN(CCO)c1ccccc1)Nc1ccc(Cl)c(S(=O)(=O)N2CCOCC2)c1 | – | inactive: -2.73% [at 46.1 µM] |
| CC(C)CC(c1nnnn1CC1CCCO1)N1CCN(c2cccc(Cl)c2)CC1 (stereo not drawn) | – | inactive: -21.6% |
| CCOC(=O)Oc1ccc2c(c1)C(C)=CC(C)(C)N2C(=O)OCC | inactive | – |
| Cc1cc(C(=O)CN2C(=O)C(=O)N(CC(C)C)C2=O)c(C)n1-c1ccccc1F | – | inactive: 2.74% [at 46.1 µM] |

| Structure (SMILES) | Potency | activity change, negative = inhibition |
| --- | --- | --- |
| OCCNCCCCOc1cccc(Br)c1 | inconclusive: 0.398 µM [activator, full curve] | – |
| CC(C)CON=C1C[C@@H](O)[C@@H](O)[C@@H]2[C@H]3C(=O)N(C[C@@H]4CCCO4)C(=O)[C@@H]3CC[C@H]12 | – | inactive: -9.86% [at 14.2 µM] |
| COc1cc(OC)cc(C(=O)NCc2ccc3c(c2)OCO3)c1 | inconclusive: 28.2 µM [activator, single point] | – |
| O=C(CCCOc1ccccc1)N1CCN(c2ccccc2)CC1 | inconclusive: 35.5 µM [inhibitor, single point] | – |
| COCCOC(=O)C1=C(C)NC(=O)NC1c1cn(-c2ccccc2)nc1-c1ccccc1 (stereo not drawn) | inconclusive: 0.891 µM [activator, full curve, poor fit] | – |
| O=c1[nH]c2cc3c(cc2cc1CN(Cc1cccnc1)C(=S)NCc1ccco1)OCCO3 | inconclusive: 35.5 µM [inhibitor, single point] | – |
| O=C(NCCCN1CCOCC1)/C(=C/c1cccnc1)NC(=O)c1ccccc1 | inconclusive: 6.31 µM [inhibitor, partial curve, poor fit] | – |
| CCn1cc(C(=O)OCC(=O)OC2CC(C)CCC2C(C)C)c(=O)c2ccc(C)nc21 (stereo not drawn) | inconclusive: 25.9 µM [inhibitor, single point] | – |
| O=C(CCC(=O)c1cccs1)Nc1nnc(C2CC2)s1 | – | inactive: 0.206% |
| CCOC(=O)CSc1nc(-c2ccccc2)nc2c1oc1ccccc12 | – | inactive: -3.64% |
| O=C(Nc1ccc(C(=O)NC2CCCCC2)cc1)c1cccnc1 | – | inactive: -4.7% [at 46.1 µM] |
| NCCCCC(=O)O | inconclusive: 35.5 µM [inhibitor, single point] | – |
| Cc1cccc(-c2nc3c4ccccc4nc(N4CCN(c5ccccc5F)CC4)n3n2)c1 | – | inactive: 27% [at 46.1 µM] |
| CCC(C)(C)NC(=O)c1ccc2c(c1)N(CC(=O)NC1CCCC1)C(=O)C(C)(C)O2 | – | inactive: -15% [at 46.1 µM] |
| c1ccc(-c2cn3c(n2)-c2ccccc2C3)cc1 | inconclusive: 22.4 µM [inhibitor, single point] | – |
| COc1ccc(-c2nnc(SCC(=O)Nc3ccccc3OC)o2)cc1 | inconclusive: 32.6 µM [inhibitor, single point] | – |
| COc1ccc(-c2cnc(NCc3cc4c(cc3[N+](=O)[O-])OCO4)n2C)cc1 | inconclusive: 29.1 µM [inhibitor, single point] | – |
| CC(C)CC(COCc1cccc(Cl)c1)N1CCN(C(=O)c2cccc(C(F)(F)F)c2)CCC1=O (stereo not drawn) | inconclusive: 1.3 µM [inhibitor, full curve, poor fit] | – |
| O=C(O)c1cccnc1SCCc1ccccc1 | inconclusive: 0.82 µM [activator, partial curve, poor fit] | – |
| O=C(Nc1nnc(C2CCCO2)s1)c1cccs1 (stereo not drawn) | – | inactive: 18.5% |
| CN(C(=O)Nc1cnccc1C(F)(F)F)C1CCCCC1 | – | inactive: -2.02% [at 46.1 µM] |
| Cc1nn(-c2ccc(C(=O)O)cc2)c2c1C(=O)CC(C)(C)C2 | – | inactive: 3.49% [at 46.1 µM] |
| O=C(CCS(=O)(=O)c1cccs1)NC1CCCCCC1 | inconclusive: 6.51 µM [activator, single point] | – |

Source: PubChem BioAssay AID540276 (National Center for Advancing Translational Sciences (NCATS), 2011)
